# Over roughly 33,000 sequences, “E-score (-0.5 to 0.5)” has its median near -0.016; the highest 2% begin near 0.3. This is one part of the list.
# Molecular target: T1, Yer184c (UniProt P39961)
# T1 sequence: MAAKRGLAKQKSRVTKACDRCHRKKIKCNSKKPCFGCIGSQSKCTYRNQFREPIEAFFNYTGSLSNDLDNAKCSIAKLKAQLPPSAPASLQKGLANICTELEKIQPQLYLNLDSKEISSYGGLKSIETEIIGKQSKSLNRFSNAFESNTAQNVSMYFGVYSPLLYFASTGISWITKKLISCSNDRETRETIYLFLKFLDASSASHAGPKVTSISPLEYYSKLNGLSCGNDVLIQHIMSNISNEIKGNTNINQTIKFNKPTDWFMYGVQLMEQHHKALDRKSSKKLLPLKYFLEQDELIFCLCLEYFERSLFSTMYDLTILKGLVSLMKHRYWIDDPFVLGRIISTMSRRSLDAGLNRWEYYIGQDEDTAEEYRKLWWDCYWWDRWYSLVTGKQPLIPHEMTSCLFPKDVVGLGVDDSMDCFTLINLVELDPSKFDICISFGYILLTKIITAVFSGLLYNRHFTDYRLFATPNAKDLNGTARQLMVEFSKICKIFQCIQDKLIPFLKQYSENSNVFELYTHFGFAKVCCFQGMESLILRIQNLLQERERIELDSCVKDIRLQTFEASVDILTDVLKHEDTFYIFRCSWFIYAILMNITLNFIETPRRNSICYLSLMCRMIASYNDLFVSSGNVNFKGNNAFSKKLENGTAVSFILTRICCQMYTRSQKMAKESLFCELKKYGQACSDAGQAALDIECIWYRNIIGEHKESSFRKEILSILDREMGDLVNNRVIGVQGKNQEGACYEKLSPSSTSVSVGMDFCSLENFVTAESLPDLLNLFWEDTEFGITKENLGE
# Assay: PBM E-score (8-mer binding enrichment) (E-score (-0.5 to 0.5)); higher = stronger / more preferred TF binding
# Conditions: protein concentration: 100 nM; construct: GST-full length
# In short: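 E-scores (a modified Wilcoxon-Mann-Whitney statistic) were assigned by the Universal PBM Analysis Suite to every ungapped eight-base word pooled with its reverse complement. The input came from universal all-10-mer Agilent arrays made double-stranded by primer extension and probed with GST-tagged yeast transcription factors at about 100-200 nM. Fluorescent anti-GST detected bound protein, and masliner normalised the scans.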
row,Sequence,PBM E-score
1,GCTTTAAA,0.00521
2,GATAATAC,0.136
3,AATGTAAG,0.0266
4,ATACATAT,0.255
5,ACGCAGGA,-0.247
6,ACCCAATA,-0.0358
7,AGCGCTGC,-0.161
8,CAACACAA,0.112
9,ATAACATG,0.0311
10,GCGCGGCC,0.177
11,ACGCCCTG,-0.0895
12,CATGCGCA,-0.111
13,AATGGGCT,-0.237
14,TGGGGTAA,-0.049
15,CCGACGCA,-0.0732
16,AACCGGAA,0.34
17,GTCAACTA,0.0392
18,GGCGTTAA,-0.0949
19,ACAGCGGT,-0.052
20,ATCACGGA,0.307
21,CCGTGTCG,0.0289
22,ACAGAGCC,-0.129
23,CACCAATC,-0.0658
24,ACGAGTCT,-0.265
25,CTGGCAGA,0.0946

row,Sequence,PBM E-score
1,CTACGTCA,-0.211
2,CACGTTAG,-0.271
3,CCAAAGCG,-0.0768
4,ATATTGGG,-0.0376
5,AGTTAACT,0.0183
6,CATGTCAA,-0.0624
7,GAATCAGC,-0.0382
8,AATGACCC,-0.341
9,AGAGCGCG,-0.0905
10,ATCTCAAC,0.192
11,CCCTATTA,-0.0889
12,ACAGGGTG,-0.253
13,CAGGCCAA,-0.0877
14,CATCGAAA,0.0496
15,ACTCGATA,0.0187
16,AATGTCGG,0.12
17,AATACGCG,0.0762
18,CCCCTATA,-0.155
19,TATCATCA,0.0334
20,AGGGGGCA,-0.298
21,CGATCCCA,-0.0644
22,AAGAAACT,-0.0235
23,ATCTGTTA,0.148
24,ATTATGGC,0.0693
25,GTGGTATA,0.0432

row,Sequence,PBM E-score
1,CAAAATGA,0.0065
2,AACATAAT,0.17
3,CCTTATCC,-0.16
4,CCCCCTGA,-0.435
5,ACGAGCAA,-0.189
6,CAATGAAC,0.0794
7,ACACCACG,-0.25
8,CTATCGTA,-0.0389
9,AGATCCTC,-0.0839
10,CAATTTTC,0.0626
11,ACCATGAG,-0.193
12,AGCTGGAG,-0.173
13,ATGCGCCC,-0.0509
14,ATCGTTTA,0.166
15,CGTTGGGA,-0.167
16,ATGAAGGG,-0.197
17,GACAGTAA,-0.0124
18,TGAATAAA,0.0702
19,CTACGGAG,0.0895
20,GCCAGACC,-0.0552
21,CGGGATAG,0.102
22,CAAGCTAC,-0.0539
23,AGGGCTTG,-0.126
24,CGCCGAAG,0.328
25,ACCACTGG,-0.0163

# In a second layout: results already given.
row	Sequence	PBM E-score
3	CCTTATCC	-0.16
4	CCCCCTGA	-0.435
5	ACGAGCAA	-0.189
6	CAATGAAC	0.0794
7	ACACCACG	-0.25
8	CTATCGTA	-0.0389

# Following part

row,Sequence,PBM E-score
1,GCCCAGGC,-0.251
2,ACTGCAAT,0.135
3,AGCAGCAG,-0.0629
4,ACTCGCGA,0.139
5,GACGCGCC,-0.125
6,CGACCACA,-0.136
7,ACAATTCC,0.0174
8,ACAACGAA,0.164
9,GTGGGATA,-0.0235
10,ATCAGTGG,-0.0823
11,ACATTGGG,-0.175
12,AGAGGGCC,-0.164
13,AAATTGGG,-0.0133
14,ATTCTACA,0.132
15,TACTTAGA,-0.0915
16,ACCAGGCA,-0.283
17,CTAACGCC,-0.0485
18,AATATGGC,-0.0156
19,AGTGCACA,0.0599
20,CAAAATGC,0.0794
21,AGCCTGTC,-0.209
22,AGGGTTAT,-0.187
23,CCATGAGA,0.0649
24,GCTATGTA,-0.122
25,ATGTTTTA,0.00138

row,Sequence,PBM E-score
1,AGCATCTG,-0.111
2,TAACCTGA,-0.0232
3,AGAGAGCC,-0.0767
4,CTTTTATA,0.131
5,TACAACCA,0.108
6,ACGAATCC,0.115
7,AGCTCTCC,-0.134
8,CCGCAGTC,-0.116
9,CCTTACAG,-0.124
10,ACGGACGA,0.237
11,TTGATCAA,0.147
12,CAGTAACA,0.0633
13,CCAAGCCC,-0.296
14,GTTGCGGA,0.193
15,CCTTTAGC,-0.0615
16,CATACCGC,-0.0504
17,AGCTCGTG,0.117
18,GCCTCCAC,-0.257
19,ACCGATCC,0.111
20,CTGCACGA,-0.136
21,AAACGTTT,0.299
22,TGGGGGAA,-0.368
23,GTCACCAA,-0.141
24,AATGGGGA,-0.168
25,CCACGGTA,0.104

row,Sequence,PBM E-score
1,ACGCGCTG,-0.11
2,GACACAAC,-0.0398
3,GCATATGA,0.0153
4,AAACAGTA,0.0452
5,AATGGGCG,-0.185
6,AAGAGTTA,-0.0159
7,CGAGCCTA,-0.134
8,GAAACCAA,0.236
9,AAGCGCGC,0.147
10,ACGTGCTG,-0.0775
11,ATAGGGCC,-0.0824
12,TCCTAGAA,0.0667
13,CCGAGTTC,0.233
14,TCCGGGCA,0.261
15,CCTCGATC,-0.0397
16,CGATACGC,-0.012
17,AGTGTTCA,0.0597
18,CTGTGCCC,-0.106
19,GAGGAGAC,-0.252
20,ACCCGTCC,-0.149
21,ATATGACC,-0.0398
22,CTTCATGA,0.0611
23,ACGCACCC,-0.223
24,ATCAGAAT,0.0176
25,CTCTGTAC,-0.0422

row,Sequence,PBM E-score
1,CTACGTTC,-0.0346
2,AGCCCGCC,-0.0365
3,GAACGCTC,-0.239
4,AGCAATCA,0.0916
5,GAAATACC,0.18
6,GAAGCCCC,-0.281
7,AGGCAGGG,-0.255
8,AGGAGAGG,-0.286
9,CAGCGAGC,0.102
10,ATAGGAAT,-0.0438
11,CAGCATGG,-0.157
12,TCCCTCGA,-0.183
13,CGAACGCG,0.0642
14,GCAACTAA,0.181
15,CGTTTCGC,0.118
16,AGGCCTCA,-0.185
17,CAAGAAGC,0.118
18,AGTAAACA,0.0707
19,GTCGTCTA,-0.108
20,CCTTCATA,0.0508
21,GCCCCGCC,0.0205
22,ACTAACGA,0.00902
